Experimental data published in doi:10.1101/2025.08.24.672030.
Like-named read-outs stand apart in the source and are kept apart here. No constants are given. Whether binding was seen depends on the method and setting. In cells and extracts the contact can be indirect. Some results given as binding are weak or reduced against the parent protein; the word gives no strength. For some assays here: Where a sequence is shown, tags or fusion partners need not be part of it.

Protein sequences, listed by entry. Tags and fused reporters are not part of them. Lines headed by an entry give the natural chain unless they say otherwise; changes in a name come on top. Chains listed by the source or under a name are the forms on record and can include a tag or linker.
UniProt P18887: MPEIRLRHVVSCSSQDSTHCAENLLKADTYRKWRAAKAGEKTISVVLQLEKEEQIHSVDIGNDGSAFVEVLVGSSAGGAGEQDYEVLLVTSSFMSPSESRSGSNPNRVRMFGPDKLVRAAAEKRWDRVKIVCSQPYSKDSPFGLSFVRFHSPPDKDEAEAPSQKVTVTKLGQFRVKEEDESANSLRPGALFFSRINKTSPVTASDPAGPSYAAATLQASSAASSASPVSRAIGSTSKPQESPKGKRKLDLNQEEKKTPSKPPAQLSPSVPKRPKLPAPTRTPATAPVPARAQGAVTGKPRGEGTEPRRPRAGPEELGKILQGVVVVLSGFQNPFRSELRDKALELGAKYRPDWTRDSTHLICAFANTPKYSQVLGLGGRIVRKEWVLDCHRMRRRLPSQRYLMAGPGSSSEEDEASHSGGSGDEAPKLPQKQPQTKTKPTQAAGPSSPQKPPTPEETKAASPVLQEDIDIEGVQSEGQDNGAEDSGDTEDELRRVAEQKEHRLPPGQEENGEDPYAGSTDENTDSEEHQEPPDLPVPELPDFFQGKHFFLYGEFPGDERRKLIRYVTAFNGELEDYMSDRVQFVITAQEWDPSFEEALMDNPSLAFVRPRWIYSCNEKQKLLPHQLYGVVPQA
SFB-tagged XRCC1 p.Arg580Trp (c.1738C>T) (P18887, form named): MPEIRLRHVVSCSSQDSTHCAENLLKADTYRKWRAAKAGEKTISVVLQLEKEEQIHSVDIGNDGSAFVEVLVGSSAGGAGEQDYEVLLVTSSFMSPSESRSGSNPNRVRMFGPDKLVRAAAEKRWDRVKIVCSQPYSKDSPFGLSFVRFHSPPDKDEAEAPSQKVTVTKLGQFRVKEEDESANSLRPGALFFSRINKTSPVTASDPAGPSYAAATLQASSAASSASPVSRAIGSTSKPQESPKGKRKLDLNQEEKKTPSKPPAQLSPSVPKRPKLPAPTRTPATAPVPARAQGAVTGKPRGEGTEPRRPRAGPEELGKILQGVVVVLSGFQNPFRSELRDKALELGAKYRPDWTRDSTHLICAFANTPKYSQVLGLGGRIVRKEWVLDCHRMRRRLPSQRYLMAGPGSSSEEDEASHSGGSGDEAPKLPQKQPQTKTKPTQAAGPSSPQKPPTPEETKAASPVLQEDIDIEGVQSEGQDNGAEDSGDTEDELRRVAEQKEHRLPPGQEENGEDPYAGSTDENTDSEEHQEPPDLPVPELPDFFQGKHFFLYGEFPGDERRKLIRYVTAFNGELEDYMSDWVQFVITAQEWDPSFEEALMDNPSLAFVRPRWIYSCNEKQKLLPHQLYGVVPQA
SFB-tagged XRCC1 p.Gln399Arg (c.1196A>G) (P18887, form named): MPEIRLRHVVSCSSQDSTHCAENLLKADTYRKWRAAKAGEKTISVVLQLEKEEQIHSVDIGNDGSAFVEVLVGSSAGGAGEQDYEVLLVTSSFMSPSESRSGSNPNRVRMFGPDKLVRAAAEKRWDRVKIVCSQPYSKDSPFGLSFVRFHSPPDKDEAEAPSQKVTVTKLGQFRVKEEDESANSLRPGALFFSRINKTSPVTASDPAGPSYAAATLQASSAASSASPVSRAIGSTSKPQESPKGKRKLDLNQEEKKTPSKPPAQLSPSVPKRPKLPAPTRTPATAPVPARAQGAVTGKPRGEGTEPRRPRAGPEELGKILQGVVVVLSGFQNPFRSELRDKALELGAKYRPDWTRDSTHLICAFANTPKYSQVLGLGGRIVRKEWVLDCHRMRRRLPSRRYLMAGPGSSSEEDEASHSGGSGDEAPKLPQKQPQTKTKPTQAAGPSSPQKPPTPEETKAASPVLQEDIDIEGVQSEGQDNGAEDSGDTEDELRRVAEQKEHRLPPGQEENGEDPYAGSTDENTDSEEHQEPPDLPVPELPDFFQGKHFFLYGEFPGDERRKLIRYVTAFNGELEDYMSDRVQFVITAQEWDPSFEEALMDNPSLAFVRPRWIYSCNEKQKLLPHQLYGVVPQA
SFB-tagged XRCC1 p.Lys431Asn (c.1293G>C) (P18887, form named): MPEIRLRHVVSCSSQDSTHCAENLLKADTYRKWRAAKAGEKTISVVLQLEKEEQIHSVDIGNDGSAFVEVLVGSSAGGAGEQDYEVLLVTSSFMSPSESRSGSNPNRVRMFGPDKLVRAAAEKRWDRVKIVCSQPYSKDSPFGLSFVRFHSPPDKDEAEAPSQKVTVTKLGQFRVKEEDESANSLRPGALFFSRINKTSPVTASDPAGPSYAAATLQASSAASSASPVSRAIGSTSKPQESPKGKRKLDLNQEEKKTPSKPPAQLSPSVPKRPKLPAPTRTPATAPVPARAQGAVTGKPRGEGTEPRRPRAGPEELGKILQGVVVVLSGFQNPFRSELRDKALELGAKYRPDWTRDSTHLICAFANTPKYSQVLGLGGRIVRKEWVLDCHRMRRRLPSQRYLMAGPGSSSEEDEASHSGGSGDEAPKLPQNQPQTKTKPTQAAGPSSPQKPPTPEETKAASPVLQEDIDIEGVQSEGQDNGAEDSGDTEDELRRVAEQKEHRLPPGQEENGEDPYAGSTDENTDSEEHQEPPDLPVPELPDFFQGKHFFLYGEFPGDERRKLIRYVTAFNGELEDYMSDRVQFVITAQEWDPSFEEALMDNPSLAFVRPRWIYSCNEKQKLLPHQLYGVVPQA
UniProt Q60596: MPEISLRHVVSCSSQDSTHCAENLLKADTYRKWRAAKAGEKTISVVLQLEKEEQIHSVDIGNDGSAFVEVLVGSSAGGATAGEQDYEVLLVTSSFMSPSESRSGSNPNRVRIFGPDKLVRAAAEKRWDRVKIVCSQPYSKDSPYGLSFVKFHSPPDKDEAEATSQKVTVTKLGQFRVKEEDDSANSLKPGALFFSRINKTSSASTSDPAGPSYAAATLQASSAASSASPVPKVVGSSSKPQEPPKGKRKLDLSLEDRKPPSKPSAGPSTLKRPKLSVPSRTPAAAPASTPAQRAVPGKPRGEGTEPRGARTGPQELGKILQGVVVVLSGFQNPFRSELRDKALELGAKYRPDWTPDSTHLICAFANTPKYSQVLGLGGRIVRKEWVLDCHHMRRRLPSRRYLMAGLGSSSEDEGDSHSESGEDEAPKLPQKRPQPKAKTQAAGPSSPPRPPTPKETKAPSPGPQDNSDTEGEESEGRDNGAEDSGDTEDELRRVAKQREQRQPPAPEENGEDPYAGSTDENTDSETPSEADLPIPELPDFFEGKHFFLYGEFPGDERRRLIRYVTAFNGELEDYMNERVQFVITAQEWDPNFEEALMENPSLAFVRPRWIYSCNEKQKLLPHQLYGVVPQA
UniProt Q92830: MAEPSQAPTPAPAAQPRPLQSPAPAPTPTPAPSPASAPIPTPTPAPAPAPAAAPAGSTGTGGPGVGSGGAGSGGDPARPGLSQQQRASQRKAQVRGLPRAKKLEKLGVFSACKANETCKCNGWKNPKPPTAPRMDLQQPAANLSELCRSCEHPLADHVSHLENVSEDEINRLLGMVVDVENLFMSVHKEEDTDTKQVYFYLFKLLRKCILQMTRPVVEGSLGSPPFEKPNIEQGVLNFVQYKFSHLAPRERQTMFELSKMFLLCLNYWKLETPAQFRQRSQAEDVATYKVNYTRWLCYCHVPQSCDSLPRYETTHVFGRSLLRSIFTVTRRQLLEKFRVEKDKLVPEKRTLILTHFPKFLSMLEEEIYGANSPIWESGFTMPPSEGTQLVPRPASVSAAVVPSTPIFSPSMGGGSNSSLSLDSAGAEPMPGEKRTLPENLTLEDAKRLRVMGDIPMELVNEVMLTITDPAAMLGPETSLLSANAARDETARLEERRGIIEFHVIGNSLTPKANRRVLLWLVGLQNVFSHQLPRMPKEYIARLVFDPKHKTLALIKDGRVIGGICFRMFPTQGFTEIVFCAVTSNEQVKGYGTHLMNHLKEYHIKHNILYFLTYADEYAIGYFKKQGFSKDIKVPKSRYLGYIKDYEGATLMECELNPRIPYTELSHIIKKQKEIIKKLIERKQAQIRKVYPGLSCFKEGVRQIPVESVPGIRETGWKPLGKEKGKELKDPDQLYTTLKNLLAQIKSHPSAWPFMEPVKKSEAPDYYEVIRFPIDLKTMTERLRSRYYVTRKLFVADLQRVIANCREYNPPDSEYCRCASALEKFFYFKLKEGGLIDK
UniProt Q9JLV6: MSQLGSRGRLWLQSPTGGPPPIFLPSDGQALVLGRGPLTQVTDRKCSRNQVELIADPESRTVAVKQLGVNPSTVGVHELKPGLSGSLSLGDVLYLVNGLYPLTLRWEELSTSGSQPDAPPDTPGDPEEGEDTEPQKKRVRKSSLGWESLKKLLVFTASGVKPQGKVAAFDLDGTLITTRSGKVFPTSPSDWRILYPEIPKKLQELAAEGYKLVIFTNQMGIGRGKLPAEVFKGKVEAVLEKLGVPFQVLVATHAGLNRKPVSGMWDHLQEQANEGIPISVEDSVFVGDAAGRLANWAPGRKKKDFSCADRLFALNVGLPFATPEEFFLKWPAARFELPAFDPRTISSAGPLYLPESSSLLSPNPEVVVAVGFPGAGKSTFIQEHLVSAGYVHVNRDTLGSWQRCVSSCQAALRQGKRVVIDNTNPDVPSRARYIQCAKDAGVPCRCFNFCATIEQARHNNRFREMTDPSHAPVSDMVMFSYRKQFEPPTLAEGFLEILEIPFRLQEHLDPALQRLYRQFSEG

Assays:
Assay in all cases: pull-down
SFB-tagged XRCC1 (human) [1] = target: SFB-tagged XRCC1 (human) (UniProt P18887)
GST-human XRCC1 (human) [2] = target: GST-human XRCC1 (human) (UniProt P18887)
GST-human TADA2B (human) [3] = target: T1, GST-human TADA2B (human) (UniProt Q86TJ2)
T1 sequence: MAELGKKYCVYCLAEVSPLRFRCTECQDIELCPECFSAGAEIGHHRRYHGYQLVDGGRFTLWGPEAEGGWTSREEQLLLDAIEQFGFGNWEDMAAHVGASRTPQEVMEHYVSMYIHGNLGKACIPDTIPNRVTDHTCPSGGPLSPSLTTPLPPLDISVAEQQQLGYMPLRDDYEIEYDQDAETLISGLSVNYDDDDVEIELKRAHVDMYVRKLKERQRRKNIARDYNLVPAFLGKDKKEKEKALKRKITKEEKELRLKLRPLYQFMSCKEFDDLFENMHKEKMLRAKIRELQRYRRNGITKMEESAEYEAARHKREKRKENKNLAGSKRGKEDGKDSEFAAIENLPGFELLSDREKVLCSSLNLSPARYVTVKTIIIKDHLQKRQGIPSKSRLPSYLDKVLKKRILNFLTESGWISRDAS

GST-human XRCC1 (human) [4] = target: GST-human XRCC1 (human) (UniProt P18887); remark: listed apart in the source
[5] = target: T2, SFB-tagged TADA2B (human) (UniProt Q86TJ2)
T2 sequence: T1 sequence

SFB-tagged XRCC1 (human) [6] = target: SFB-tagged XRCC1 (human) (UniProt P18887); remark: listed apart in the source
[7] = target: SFB-tagged XRCC1 p.Arg580Trp (c.1738C>T) (human) (UniProt P18887)
[8] = target: SFB-tagged XRCC1 p.Gln399Arg (c.1196A>G) (human) (UniProt P18887)
[9] = target: SFB-tagged XRCC1 p.Lys431Asn (c.1293G>C) (human) (UniProt P18887)
GST-mouse XRCC1 (mouse) [10] = target: GST-mouse XRCC1 (mouse) (UniProt Q60596)
GST-human GCN5 (human) [11] = target: GST-human GCN5 (human) (UniProt Q92830)
GST-human TADA2B (human) [12] = target: T1, GST-human TADA2B (human); remark: listed apart in the source
GST-human GCN5 (human) [13] = target: GST-human GCN5 (human) (UniProt Q92830); remark: listed apart in the source
SFB-tagged GCN5 (human) [14] = target: SFB-tagged GCN5 (human) (UniProt Q92830)
GST-mouse XRCC1 (mouse) [15] = target: GST-mouse XRCC1 (mouse) (UniProt Q60596); remark: listed apart in the source
SFB-tagged GCN5 (human) [16] = target: SFB-tagged GCN5 (human) (UniProt Q92830); remark: listed apart in the source
GST-human GCN5 (human) [17] = target: GST-human GCN5 (human) (UniProt Q92830); remark: listed apart in the source
GST-human XRCC1 (human) [18] = target: GST-human XRCC1 (human) (UniProt P18887); remark: listed apart in the source
SFB-tagged GCN5 (human) [19] = target: SFB-tagged GCN5 (human) (UniProt Q92830); remark: listed apart in the source
SFB-tagged XRCC1 (human) [20] = target: SFB-tagged XRCC1 (human) (UniProt P18887); remark: listed apart in the source
[21] = target: SFB-tagged XRCC1 p.Arg580Trp (c.1738C>T) (human) (UniProt P18887); remark: listed apart in the source
[22] = target: SFB-tagged XRCC1 p.Gln399Arg (c.1196A>G) (human) (UniProt P18887); remark: listed apart in the source
[23] = target: SFB-tagged XRCC1 p.Lys431Asn (c.1293G>C) (human) (UniProt P18887); remark: listed apart in the source

GCN5 (human, endogenous) (from UniProt Q92830 1-837)
binding (SFB-tagged XRCC1 (human) [1]): binds
binding (GST-human XRCC1 (human) [2]): binds
binding (GST-human TADA2B (human) [3]): binds
binding (GST-human XRCC1 (human) [4]): binds
binding [5]: binds
binding (SFB-tagged XRCC1 (human) [6]): binds
binding [7]: binds
binding [8]: binds
binding [9]: binds

PNKP (mouse, endogenous) (from UniProt Q9JLV6 1-522)
binding (GST-mouse XRCC1 (mouse) [10]): binds

XRCC1 (human, endogenous) (from UniProt P18887 1-633)
binding (GST-human GCN5 (human) [11]): binds
binding (GST-human TADA2B (human) [12]): binds
binding (GST-human GCN5 (human) [13]): binds
binding (GST-human TADA2B (human) [3]): binds
binding (SFB-tagged GCN5 (human) [14]): binds
binding [5]: binds

B1: LIG3 (mouse, endogenous) (protein, UniProt P97386 1-1015)
chain: MTLAFKILFPRNLCALGRKELCLFPEQNRWAAISQFSQWSETNLLGGCCLLQRRKPVLALQRGHLRPRATHLTFWPGSHVGLCTGPCAMAEQRFCVDYAKRGTAGCKKCKEKIVKGVCRIGKVVPNPFSESGGDMKEWYHIKCMFEKLERARATTKKIEDLTELEGWEELEDNEKEQISQHIADLSSKAAATPKKKAAVQAKLTTTGQVTSPVKGASFITSTNPRKFSGFSAAKPNNSEQAPSSPAPGTSLSASKCDPKHKDCLLREFRKLCAMVAENPSYNTKTQIIHDFLQKGSTGGFSDGFHGDVYLTVKLLLPGVIKSVYNLNDKQIVKLFSRIFNCNPDDMARDLEQGDVSETIRIFFEQSKSFPPAAKSLLTIQEVDAFLLHLSKLTKEDEQQQALQDIASRCTANDLKCIIRLIKHDLKMNSGAKHVLDALDPNAYEAFKASRNLQDVVERVLHNEQEVEKDPGRRRALRVQASLMTPVQPMLAEACKSIEYAMKKCPNGMFSEIKYDGERVQVHKKGDHFSYFSRSLKPVLPHKVAHFKDYIPKAFPGGQSMILDSEVLLIDNNTGKPLPFGTLGVHKKAAFQDANVCLFVFDCIYFNDVSLMDRPLCERRKFLHDNMVEIRNRIMFSEMKQVTKASDLADMINRVIREGLEGLVLKDVKGTYEPGKRHWLKVKKDYLNEGAMADTADLVVLGAFYGQGSKGGMMSIFLMGCYDPDSQKWCTVTKCAGGHDDATLARLQKELVMVKISKDPSKIPSWLKINKIYYPDFIVPDPKKAAVWEITGAEFSRSEAHTADGISIRFPRCTRIRDDKDWKSATNLPQLKELYQLSKDKADFAVVAGDEASPTTGGSSGENEGTAGSAGPCKGPPSKSSASAKTTEQKLNSPSSRGGIKPIPKHSPMKPGEKLAVKSSPVKVGMKRKATDETPCLKKVLLDVFTGVRLYLPPSTPDFKRLKRYFVAFDGDLVQEFDMGSATHVLGNREKNTDAQLVSSEWIWACIRKRRLIAPC
binding (GST-mouse XRCC1 (mouse) [15]): binds

B2: TADA2B (human, endogenous) (protein, UniProt Q86TJ2 1-420)
chain: T1 sequence
binding (SFB-tagged GCN5 (human) [16]): binds
binding (SFB-tagged XRCC1 (human) [1]): binds
binding (GST-human GCN5 (human) [17]): binds
binding (GST-human XRCC1 (human) [18]): binds
binding (SFB-tagged GCN5 (human) [19]): binds
binding (SFB-tagged XRCC1 (human) [20]): binds
binding [21]: no binding
binding [22]: binds
binding [23]: binds
